This passage reports survivor count and T/C results from PubChem BioAssay AID192 (DTP/NCI, 2004).

The list is a part of this screen's results and no random one: it is rich in T/C values a quarter to a half above the control, in often repeated tests (any T/C) and in doses without a T/C. Further doses and runs are listed elsewhere. T/C is the treated group as % of the vehicle group. Some entries give survivors of the animals treated and no T/C: the source files T/C as zero there, which appears to mark a toxic dose or a test without result, not a measured value. Some survivor counts are full or nearly so, which does not show that the dose was tolerated: survival well below the control is almost never listed, so the zero probably covers shortened survival too. Counts of survivors are from the toxicity check (mostly the fifth day) where no day follows; animals may have died later. Schedule codes are those of the source, read here as Q, the interval in days (D) or hours (H), X, the number of doses. Additions like (4×) give the number of equal values in this list. Some entries were tested several times; the values are given in rising order. Some molecules as drawn cover several salts, stereoisomers or complexes of the source; a dose is that of the sample tested. Where survival is the endpoint, the PubChem record calls one and a half times the control and up active, and a quarter to a half above the control has no call in these data; cut-offs in other NCI protocols can differ. Some T/C values are followed by the survivors on the day toxicity was checked, most often the fifth; where none is given, no animal had died by that day.

The experiment deals with BDF1 mice, B16 melanoma ip, median survival T/C. The experiment is described as follows: NCI In Vivo Anticancer Drug Screen. Data for tumor model B16 Melanoma (intraperitoneal) in B6D2F1 (BDF1) mice. To be noted: T/C endpoint: median survival time, higher T/C = longer survival. In short, it runs like this:
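In this screen, activity was judged from survival or tumor size in treated versus vehicle-treated tumor-bearing mice, reported as T/C.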

[1] abbreviates: dose: 200.0 mg/kg/injection, schedule: Q01DX009 (ip), vehicle: saline.
Setting [2] is: dose: 50.0 mg/kg/injection, schedule: Q01DX009 (ip), vehicle: saline.
Where [3] appears, read: dose: 100.0 mg/kg/injection, schedule: Q01DX009 (ip), vehicle: saline.
Where [4] appears, read: dose: 400.0 mg/kg/injection, schedule: Q01DX009 (ip), vehicle: saline.
Where [5] appears, read: dose: 100.0 mg/kg/injection, schedule: Q01DX009 (ip), vehicle: saline with Tween-80.

Regarding `O=C(CCCN1CCC(O)(c2cccc(C(F)(F)F)c2)CC1)c1ccc(F)cc1`, the survivor count by setting is: (dose: 0.09 mg/kg/injection, schedule: Q01DX009 (ip), vehicle: Klucel (hydroxypropylcellulose) (HPC)) 10 of 10; (dose: 1.56 mg/kg/injection, schedule: Q01DX009 (ip), vehicle: Klucel (hydroxypropylcellulose) (HPC)) 9 of 10; (dose: 3.12 mg/kg/injection, schedule: Q01DX009 (ip), vehicle: Klucel (hydroxypropylcellulose) (HPC)) 9 of 10; (dose: 6.25 mg/kg/injection, schedule: Q01DX009 (ip), vehicle: Klucel (hydroxypropylcellulose) (HPC)) 10 of 10; (dose: 12.5 mg/kg/injection, schedule: Q01DX009 (ip), vehicle: Klucel (hydroxypropylcellulose) (HPC)) 7 of 10; (dose: 16.0 mg/kg/injection, schedule: Q01DX009 (ip), vehicle: Klucel (hydroxypropylcellulose) (HPC)) 0 of 10. The survivor count is listed as 0 of 10 (dose: 25.0 mg/kg/injection, schedule: Q01DX009 (ip), vehicle: Klucel (hydroxypropylcellulose) (HPC)); 0 of 10 (dose: 32.0 mg/kg/injection, schedule: Q01DX009 (ip), vehicle: Klucel (hydroxypropylcellulose) (HPC)); 0 of 10 (dose: 64.0 mg/kg/injection, schedule: Q01DX009 (ip), vehicle: Klucel (hydroxypropylcellulose) (HPC)).
Consider `O=C(Nc1ccc(Cl)cc1)Nc1ccccc1F`, for which the survivor count (dose: 400.0 mg/kg/injection, schedule: Q01DX009 (ip), vehicle: saline with Tween-80) was 10 of 10.
Consider `NC(=O)c1ncc[nH]c1=O`, for which the survivor count under setting [1] was 3 of 10.
As for `CCN(CC)CCCNc1nccc2c(C)c3[nH]c4ccncc4c3cc12`, where the note is “dose: 0.19 mg/kg/injection, schedule: Q01DX009 (ip), vehicle: other”, the T/C is 125 % of control. For the same compound, where the note is “dose: 12.0 mg/kg/injection, schedule: Q01DX009 (ip), vehicle: other”, the survivor count is recorded as 8 of 10.
Take `Nc1cc2[nH]cnc2c(=O)[nH]1`: the T/C reads like this: (dose: 12.5 mg/kg/injection, schedule: Q01DX009 (ip), vehicle: saline) 129 % of control; under setting [2], 127 % of control; under setting [3], 129 % of control; under setting [1], 148 % of control. In addition, the survivor count runs as follows: under setting [4], 9 of 10; (dose: 400.0 mg/kg/injection, schedule: Q01DX009 (ip), vehicle: suspension in saline) 7 of 10.
For `COc1cc(NS(C)(=O)=O)ccc1Nc1c2ccc(Cl)cc2nc2c(OC)cccc12`, the T/C runs as follows: (dose: 1.5 mg/kg/injection, schedule: Q01DX009 (ip), vehicle: saline with Tween-80) 144 % of control; (dose: 2.25 mg/kg/injection, schedule: Q04DX003 (ip), vehicle: water) 129 % of control; (dose: 4.5 mg/kg/injection, schedule: Q04DX003 (ip), vehicle: water) 142 % of control; (dose: 26.0 mg/kg/injection, schedule: Q04DX003 (iv), vehicle: water) 130 % of control [9 of 10 alive]. The survivor count (dose: 13.0 mg/kg/injection, schedule: Q01DX005 (iv), vehicle: water) is on record as 10 of 10; the survivor count (dose: 18.0 mg/kg/injection, schedule: Q01DX009 (ip), vehicle: other) is reported as 10 of 10; the survivor count (dose: 18.0 mg/kg/injection, schedule: Q01DX009 (ip), vehicle: saline with Tween-80) is recorded as 10 of 10; the survivor count (dose: 26.0 mg/kg/injection, schedule: Q01DX005 (iv), vehicle: water) is 6 of 10; the survivor count (dose: 36.0 mg/kg/injection, schedule: Q01DX009 (ip), vehicle: other) is recorded as 8 of 10; the survivor count (dose: 72.0 mg/kg/injection, schedule: Q01DX009 (ip), vehicle: other) is 6 of 10. Besides, the survivor count (dose: 72.0 mg/kg/injection, schedule: Q04DX003 (ip), vehicle: water) is on record as 5 of 10.
As for `CC1=C(/C=C/C(C)=C/C=C/C(C)=C/CO)C(C)(C)CCC1`, the survivor count runs as follows: (dose: 12.5 mg/kg/injection, schedule: Q01DX005 (ip), vehicle: saline with Tween-80) 10 of 10; (dose: 25.0 mg/kg/injection, schedule: Q01DX005 (ip), vehicle: saline with Tween-80) 10 of 10; (dose: 50.0 mg/kg/injection, schedule: Q01DX005 (ip), vehicle: saline with Tween-80) 10 of 10; (dose: 64.0 mg/kg/injection, schedule: Q01DX009 (ip), vehicle: saline with Tween-80) 9 of 10 and 10 of 10; (dose: 100.0 mg/kg/injection, schedule: Q01DX005 (ip), vehicle: saline with Tween-80) 10 of 10; (dose: 128.0 mg/kg/injection, schedule: Q01DX009 (ip), vehicle: saline with Tween-80) 8 of 10 and 10 of 10.
Take `COc1ccc2c(c1)C(OC)C1c3c(cc4c(c3-2)OCO4)CCN1C` (stereo unspecified): under “dose: 0.5 mg/kg/injection, schedule: Q01DX009 (ip), vehicle: acid diluted with saline”, the T/C was 127 % of control. Moreover, under “dose: 4.0 mg/kg/injection, schedule: Q01DX009 (ip), vehicle: acid diluted with saline”, the survivor count is reported as 9 of 10.
As for `COc1cc2c(cc1O)C(=O)CCCC2`, the T/C reads like this: under setting [5], 129 % of control; (dose: 200.0 mg/kg/injection, schedule: Q01DX009 (ip), vehicle: saline with Tween-80) 134 % of control [9 of 10 alive].
Take `Clc1cc(Cl)c(C[N+]23CN4CN(CN(C4)C2)C3)cc1Cl`: under setting [4], the survivor count was 0 of 10.
`CN1CCCCC1CCN1c2ccccc2Sc2ccc(Cl)cc21` (stereo unspecified): the survivor count is, setting by setting: under setting [2], 10 of 10; under setting [3], 7 of 10; under setting [1], 1 of 10; under setting [4], 0 of 10.
For the compound `CC(C)[NH-].CC(C)[NH-].[Cl][Pt+2][Cl]`, the T/C (dose: 1.56 mg/kg/injection, schedule: Q01DX009 (ip), vehicle: dextrose) was 139 % of control; the T/C (dose: 3.12 mg/kg/injection, schedule: Q01DX009 (ip), vehicle: dextrose) was 125 % of control; the T/C (dose: 6.25 mg/kg/injection, schedule: Q01DX009 (ip), vehicle: dextrose) was 133 % of control. Also, the survivor count by setting is: (dose: 25.0 mg/kg/injection, schedule: Q01DX009 (ip), vehicle: dextrose) 10 of 10; (dose: 50.0 mg/kg/injection, schedule: Q01DX009 (ip), vehicle: dextrose) 8 of 10.
Regarding `CN1CCN(Cc2c(O)ccc3c4c(c(=O)oc23)CCCC4)CC1`, where the note is “dose: 256.0 mg/kg/injection, schedule: Q01DX009 (ip), vehicle: Klucel (hydroxypropylcellulose) (HPC)”, the survivor count is recorded as 0 of 5.
As to `CN(C)c1ccc2nc3ccc(=[N+](C)C)cc-3sc2c1`, the survivor count was 10 of 10 (dose: 25.0 mg/kg/injection, schedule: Q01DX009 (ip), vehicle: saline) and 8 of 10 under setting [2].
Regarding `C[C@@H]1CC[C@]2(C)CC[C@]3(C)C(=CC[C@@H]4[C@@]5(C)CC[C@@H](OC(=O)c6ccc(O)cc6)C(C)(C)[C@@H]5C[C@H](O)[C@]43C)[C@@H]2[C@H]1C(=O)O`, the survivor count (dose: 0.2 mg/kg/injection, schedule: Q01DX009 (ip), vehicle: saline with Tween-80) is given as 10 of 10.
On to `CCC1(C)c2cc(C)c(C(C)=O)cc2C(C)(C)C1C` (stereo unspecified), for which, under setting [5], the survivor count is reported as 10 of 10.
Regarding `O=C(N/N=C/c1ccc(O)cc1O)c1cccnc1`, the survivor count runs as follows: (dose: 6.25 mg/kg/injection, schedule: Q01DX009 (ip), vehicle: olive oil, sesame oil, peanut oil) 10 of 10 (2×); (dose: 12.5 mg/kg/injection, schedule: Q01DX009 (ip), vehicle: olive oil, sesame oil, peanut oil) 10 of 10 (2×); (dose: 25.0 mg/kg/injection, schedule: Q01DX009 (ip), vehicle: olive oil, sesame oil, peanut oil) 10 of 10; (dose: 50.0 mg/kg/injection, schedule: Q01DX009 (ip), vehicle: olive oil, sesame oil, peanut oil) 9 of 10 and 10 of 10; (dose: 100.0 mg/kg/injection, schedule: Q01DX009 (ip), vehicle: olive oil, sesame oil, peanut oil) 9 of 10 and 10 of 10; (dose: 200.0 mg/kg/injection, schedule: Q01DX009 (ip), vehicle: olive oil, sesame oil, peanut oil) 1 of 10 and 7 of 10.
